# PubChem BioAssay AID720505 | Drosophila RNAi Screening Center, 2013
# Assay: 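Knock-downs that reduce calcium influx once internal stores are emptied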 (primary screen)
# Cell system: Drosophila S2R+ cells
# Reagents: long dsRNA against Drosophila genes
# Challenge: thapsigargin (2 µM) in calcium-free buffer to empty internal stores, then 2 mM calcium added back
# Measured: 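Fluo-4 signal in 384-well plates read on a FLIPR after thapsigargin (2 µM, calcium-free) store depletion and 2 mM calcium add-back; unnormalised mean endpoint per well; screen run twice, selected wells retested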
# Direction: calcium signal: higher = more calcium entry after store depletion
# Call rule: 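About 1500 genes called as lowering calcium entry, by varying amounts, judged against per-plate control wells with STIM1 as positive and Rho1 as negative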
# Calls: active = called as lowering calcium entry; inactive = not called
# The screen tested about 20,000 reagents; below is a random part of those with a known target gene and a result. Of all reagents, about 2,100 (10%) are marked active. 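Raw plate signals without normalisation; calls rest on control-based scores that were not deposited; replicate 2 separates called from uncalled poorly.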 Reagents against one gene are numbered here. A plus sign joins genes that one reagent is predicted to hit. Not stated in the record: the amount of reagent, the time to read-out.
Gene,reagent,"calcium signal, replicate 1","calcium signal, replicate 2",activity call
dgt3 (dim gamma-tubulin 3),1,171,85.9,inactive
Scamp,1,82,136,inactive
Nepl5 (Neprilysin-like 5),1,108,177,inactive
CG5541,1,103,94.5,inactive
Adgf-D (Adenosine deaminase-related growth factor D),1,147,215,inactive
Rab10,1,89.4,95,inactive
CG14000 + bchs,1,184,125,inactive
"Gmer (GDP-4-keto-6-deoxy-D-mannose 3,5-epimerase/4-reductase)",1,161,79.6,inactive
CG11454,1,86.2,106,inactive
Lgr3 (Leucine-rich repeat-containing G protein-coupled receptor 3),1,167,127,inactive
Lgr3 (Leucine-rich repeat-containing G protein-coupled receptor 3),2,71.8,107,inactive
CG11034,1,135,141,inactive
CG11034,2,172,101,inactive
CG9970,1,73.9,69.2,inactive
CG17959,1,85.2,157,inactive
ItgaPS5 (Integrin alphaPS5 subunit),1,125,213,inactive
usp (ultraspiracle),1,98.5,122,inactive
ear (ENL/AF9-related),1,128,128,inactive
CR43670 + CR43671 + CR43669,1,115,85.3,inactive
CR43670 + CR43671 + CR43669,2,126,99.4,inactive
CG43318,1,144,161,inactive
CG3939,1,90.2,134,inactive
Mi-2,1,87.2,120,inactive
MRG15 (MORF-related gene 15),1,90.3,155,inactive
CG32087,1,44.9,67.8,inactive
CG14418,1,82.4,138,inactive
CG14418,2,104,149,inactive
RhoGAP54D (Rho GTPase activating protein at 54D),1,146,125,inactive
CG9154,1,107,271,inactive
Gr22b (Gustatory receptor 22b),1,99.5,9321,inactive
CG13562,1,97.1,226,inactive
SCCRO4 (Squamous cell carcinoma-related oncogene 4),1,69.4,131,active
edl (ETS-domain lacking),1,73.2,132,active
CG15458,1,79.4,101,inactive
